The values that follow come from PubChem BioAssay AID1347423 (Functional Genomics Laboratory (NCATS/FGL), 2020).

Among all 52,000 sequences or so, about 210 (0.4%) were called active.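 How the source made its calls: active means gene whose silencing raises cell survival under the drug, median off-target-corrected z-score across its silencing RNAs 2 or more; inactive means the rest.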 This is one part of the list.

This test in a line: Resistance to Poly (ADP-Ribose) Polymerase inhibitor: Gene Identification via Genome-wide siRNA Screen. The settings on record: mouse BRCA2 R2336H ES cells, olaparib, CellTiter-Glo viability; stronger effect = higher value. The gist of the method: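 Mouse BRCA2 R2336H ES cells were reverse-transfected with siRNA (20 nM final), treated at 48 h with 500 nM olaparib, and read by CellTiter-Glo after 72 h. Scores: MAD-based z per siRNA, median per gene, seed off-target correction.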
(ATP-based viability assays read luminescence as a measure of living cells.)
On to GGAUUAUAAGUGGAGAAUGTT against Sytl5, for which the z-score is inactive: 0.626.

With GGACUUCAUGCAUCUUACUTT against Stat1, the z-score was inactive: 1.9.

For GGAUCUCCUGCUUGAACUGTT against Adam33, the z-score was inactive: -0.375.

As to GGAAAAUACAGCGCGAAUUTT against Nexn, the z-score was inactive: -0.415.

With GGAUGAAGAUGACUUUGAUTT against Hnrpul1, the z-score was inactive: -0.591. Turning to GGACCUCUAGCUGGAACACTT against Il17c, the z-score was inactive: -0.521. As for CCAUCACUCGAGCUUCUAGTT against Dhx30, the figure is inactive: 2.03; as for GGCACUUCAAGGAGUUUUUTT against Lig4, inactive: -0.102. Consider GCCGGUCUUUCAAGAAGAUTT against Lnx1, for which the z-score is inactive: -1.59. In the case of GGCUACCAGGUUCUUAAACTT against Alox12b, the z-score was inactive: -0.271. For GCUGAACAGGUGGUACAAUTT against B3gnt1, the z-score is inactive: -0.38.

For the sequence GGACAAGCUCCAAAACAACTT against Sfrs4, the z-score is inactive: -1.45.

In the case of CCCUCUCCGAUAUAACACUTT against Olfr672, the z-score was inactive: -0.0199. Under GGUUAACUGAAUCAAAAAGTT against Pdhx stands inactive: 1.41. As for “CCUUCAGAUCAUUCUUAGATT against C530050O22Rik”, the figure is inactive: -0.371; as for GGAUGAUGAGGAUGACUACTT against Trap1a, inactive: -0.824; as for “GGAAAAAAUGGAGUUAUGUTT against C230096C10Rik”, inactive: 0.298. Under GGAAUUUCCCAAAAGCACUTT against Nubp2 stands inactive: -0.745; under GCCAGAGCAUGAGUGAAAATT against Sephs2, inactive: 0.134. Regarding GGUGGAAGACAAUGAAAUUTT against Ftsj1, the z-score is inactive: 0.312. Under CCUCGACACUACUGUGUUATT against Mvp stands inactive: -0.829; under GGGCUGUAUAUAAAAUAUCTT against Gprc5b, inactive: 0.116; under “GGAAUUCAGGGAGCUUCGATT against 1700034M03Rik”, inactive: 0.272. Under CGACCUGUUCGCCAUCAAATT against AI480556 stands inactive: 1.7; under GGCUCUAACUGUGAGAAGATT against Dll3, inactive: -0.0834; under GGCUUGUGGAUGAAUUGUATT against Cldn8, inactive: -0.504.

For the sequence CCCUUGUGAUGUGGUGAAGTT against Slc25a22, the z-score is inactive: -1.58. As for GGAGAACUGAUAAAGCUUUTT against Tas2r105, the figure is inactive: 0.757. As for GGUUGAUGAAAAAACUGUATT against Sh3d1B, the figure is inactive: 1.02.
